Assay results taken from paper PMC6037667.

By UniProt entry, the sequences of proteins in these tests, tags left out.
UniProt Q13950, whole entry: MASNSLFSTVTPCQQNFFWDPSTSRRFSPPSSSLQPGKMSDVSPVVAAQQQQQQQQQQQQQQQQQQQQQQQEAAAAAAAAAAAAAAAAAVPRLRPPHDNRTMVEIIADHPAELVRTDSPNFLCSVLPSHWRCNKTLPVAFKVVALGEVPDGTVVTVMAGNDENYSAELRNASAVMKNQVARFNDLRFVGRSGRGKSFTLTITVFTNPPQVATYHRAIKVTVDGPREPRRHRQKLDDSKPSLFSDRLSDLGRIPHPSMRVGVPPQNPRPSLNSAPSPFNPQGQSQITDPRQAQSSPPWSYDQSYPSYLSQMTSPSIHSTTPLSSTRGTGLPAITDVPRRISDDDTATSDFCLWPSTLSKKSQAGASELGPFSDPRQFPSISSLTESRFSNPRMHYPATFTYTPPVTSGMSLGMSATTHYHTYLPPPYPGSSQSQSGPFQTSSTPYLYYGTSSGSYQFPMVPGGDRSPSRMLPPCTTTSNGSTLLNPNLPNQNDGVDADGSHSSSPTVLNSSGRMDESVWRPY
UniProt Q13950, whole entry S118D: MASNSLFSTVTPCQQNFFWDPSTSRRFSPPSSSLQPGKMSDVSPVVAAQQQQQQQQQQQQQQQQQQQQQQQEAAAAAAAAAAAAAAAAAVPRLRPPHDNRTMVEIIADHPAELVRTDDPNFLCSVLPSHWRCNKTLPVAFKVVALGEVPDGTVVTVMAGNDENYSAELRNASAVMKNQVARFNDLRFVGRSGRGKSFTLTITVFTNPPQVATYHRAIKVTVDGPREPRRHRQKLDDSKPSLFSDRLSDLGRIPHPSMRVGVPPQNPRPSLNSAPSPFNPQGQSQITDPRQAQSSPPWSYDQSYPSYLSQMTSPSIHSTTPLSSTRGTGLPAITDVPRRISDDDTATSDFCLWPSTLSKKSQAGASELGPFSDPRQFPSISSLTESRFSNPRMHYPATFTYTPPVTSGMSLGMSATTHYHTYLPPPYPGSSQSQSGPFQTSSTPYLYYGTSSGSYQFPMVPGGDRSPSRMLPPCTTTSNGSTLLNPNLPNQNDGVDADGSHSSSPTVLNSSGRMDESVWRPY

Assays:
RUNX2-WT = RUNX2-WT (UniProt Q13950); experiment: EMSA; details: metformin 5 mM, 6 h (cells), enhanced binding; EMSA: 5 ug nuclear extract, 10 pmol probe, 37 C, 30 min, 1x binding buffer printed as 200 mM HEPES pH 7.4, 40 mM DTT, 4 mM EDTA pH 8.0, 50% glycerol; protein in a lysate after overexpression; residues 1-521; protein details: DsRed (pDsRed1-N1); label: 32P ([gamma-32P])
RUNX2-S118D = RUNX2-S118D (UniProt Q13950); experiment: EMSA; details: no drug stated, enhanced binding; EMSA: 5 ug nuclear extract, 10 pmol probe, 37 C, 30 min, 1x binding buffer printed as 200 mM HEPES pH 7.4, 40 mM DTT, 4 mM EDTA pH 8.0, 50% glycerol; protein in a lysate after overexpression; residues 1-521; protein details: DsRed (pDsRed1-N1); label: 32P ([gamma-32P])

Does “CGAGTATTGTGGTTAATACG (double strand) [Osteocalcin promoter RUNX2 consensus site at -140]” bind (RUNX2-WT)?
Result: binds

Does “CGAGTATTGTGGTTAATACG (double strand) [Osteocalcin promoter RUNX2 consensus site at -140]” bind (RUNX2-S118D)?
Result: binds

For at least one entry, the source does not settle the construct or the ends of the probe. Results from cells or extracts need not show a direct contact.
